Reference: patent US20150119285
The exact form of at least one protein or probe is not confirmed. Where a protein sequence is shown, tags need not be part of it.

Target: T1, C-reactive protein (CRP) (UniProt P02741)
T1 sequence (looked up, limits assumed): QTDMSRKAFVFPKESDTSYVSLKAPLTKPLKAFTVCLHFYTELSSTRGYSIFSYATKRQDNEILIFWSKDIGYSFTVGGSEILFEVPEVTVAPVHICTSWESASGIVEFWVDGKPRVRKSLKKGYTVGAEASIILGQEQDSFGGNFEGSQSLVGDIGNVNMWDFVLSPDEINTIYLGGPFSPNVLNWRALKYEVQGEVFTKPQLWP
Experiment: pull-down
Conditions: single-stranded DNA; for Kd: bead pulldown with qPCR, BD buffer, room temperature, assayed with primer flanks

Row | Sequence | Kd [nM] | binding result
1 | AATTACAAATTTGGACTGTT [20N AC >200K-2] | 8.35 | 
2 | ACCCTACGTACGTTCTCATG [20N RO F20K-1] |  | binds
3 | ACCGTGTTGTCTGAGGTCTC [20N RO F20-5] |  | binds
4 | AGACCTTTGAAGGCCCCAAG [20N RO F2-1] |  | binds
5 | AGTTAGTTTCAGTGGGTCCC [20N RO F20-4] |  | binds
6 | ATACTCGCCGCTTTTGAATT [20N AC F2-4] |  | binds
7 | ATATAATTTTGCTCTTTATT [20N RO F20K-2] |  | binds
8 | ATTGTTCGTTATTGCGTTCG [20N AC F2-2] |  | binds
9 | CACATTAGGTGTGATAAGGC [20N RO F27K-6] | 22.5 | 
10 | CTCCTTTTGATTTGCGGGTA [20N AC F2K-1] |  | binds
11 | CTCTTGGACAACTGGATTAG [20N RO F2K-4] |  | binds
12 | CTGTGGTTGGCGCTTGGCAT [20N HAC 100g-1] |  | binds
13 | CTTTCTTTCTAGGTGTGTG [20N AC F20-4] |  | binds
14 | GCATTGTATCACAGGTACTG [20N AC F200K-1] |  | binds
15 | GCCCCCGAAGTTGCTTAGTC [20N RO F27K-4] |  | binds
16 | GCCTAAAGCTGGATTCCCTG [OS-Mi-20N-1] | 0.33 | 
17 | GCGTTTGGCATCCCTCGGTC [20N HAC 50g-9] |  | binds
18 | GGTGTGCGTTATTCTGTGGC [20N RO F2K-1] |  | binds
19 | GTGTCGTTCGGTGCATCATG [20N HAC 400g-5] |  | binds
20 | GTTTACTGTTTTATTGCGCT [20N HAC 200g-2] |  | binds
21 | TATGATAAGGTGATAACATG [20N HAC 200g-3] |  | binds
22 | TATGCGGGTGTTTGCGACTG [20N AC F20-2] |  | binds

Row | Sequence | Kd [nM] | binding result
23 | TATGTATGGAATCACAATCC [20N HAC 25g-1] |  | binds
24 | TCCTGTTGATGTGTGTTATATG [20N AC >200K-1] |  | binds
25 | TCGGTGTGCCACTTTCTCAA [20N RO F200-1] |  | binds
26 | TCTACGCGATATTCTCCCCC [20N AC F20K-1] |  | binds
27 | TCTGTAATTTATAGTTCCAT [20N RO >27K-1] | 6.26 | 
28 | TCTTCCGCCGTACCGTTCCC [20N AC F20K-3] |  | binds
29 | TGACTTACATGTACTACTTT [20N AC F200-1] |  | binds
30 | TGCTATTCAGGTGGACTATG [20N HAC >400g-1] |  | binds
31 | TGGACTTCATTTTAAGTATG [20N HAC 100g-2] |  | binds
32 | TGGCAACTTTTGAACGCGTT [20N HAC >400g-4] |  | binds
33 | TGTATGGTGGTTCCATCTTC [20N HAC 12.5g-2] |  | binds
34 | TGTCAGTTTGATCTGTAATT [20N AC F200-2] |  | binds
35 | TTGCATAGTTCGGTTCTATG [20N HAC 12.5g-1] |  | binds
36 | TTGCGGGATGAAGTGTCTAA [20N HAC 25g-2] |  | binds
37 | TTGGCACAAAGCGGTGTTAC [20N HAC 400g-1] | 5.67 | 
38 | TTGGCTTTAACTATATGGAG [20N AC F2K-4] |  | binds
39 | TTGGTATTCCTCGCGTTTTT [20N HAC 50g-2] |  | binds
40 | TTGGTTTGTAACATTGATGG [20N RO F2-2] |  | binds
41 | TTGTCTCTGGGGATCTAAAC [20N AC F200K-2] |  | binds
42 | TTTTAGTTGTGCCTGGTGCG [20N RO F200-3] |  | binds
43 | TTTTTCGCTGGTGTTCGACC [20N RO >27K-5] |  | binds
